From publication PMC11879137
These are yes or no findings as the source states them, for the method shown. In cells and extracts the contact can be indirect. Some entries that bind do so weakly or less than the wild type.

Sequences of proteins named here, by UniProt entry; tags and fusion partners are left off. A change or cut given only in a name is not applied to a line headed by its entry.
UniProt Q9UKI8: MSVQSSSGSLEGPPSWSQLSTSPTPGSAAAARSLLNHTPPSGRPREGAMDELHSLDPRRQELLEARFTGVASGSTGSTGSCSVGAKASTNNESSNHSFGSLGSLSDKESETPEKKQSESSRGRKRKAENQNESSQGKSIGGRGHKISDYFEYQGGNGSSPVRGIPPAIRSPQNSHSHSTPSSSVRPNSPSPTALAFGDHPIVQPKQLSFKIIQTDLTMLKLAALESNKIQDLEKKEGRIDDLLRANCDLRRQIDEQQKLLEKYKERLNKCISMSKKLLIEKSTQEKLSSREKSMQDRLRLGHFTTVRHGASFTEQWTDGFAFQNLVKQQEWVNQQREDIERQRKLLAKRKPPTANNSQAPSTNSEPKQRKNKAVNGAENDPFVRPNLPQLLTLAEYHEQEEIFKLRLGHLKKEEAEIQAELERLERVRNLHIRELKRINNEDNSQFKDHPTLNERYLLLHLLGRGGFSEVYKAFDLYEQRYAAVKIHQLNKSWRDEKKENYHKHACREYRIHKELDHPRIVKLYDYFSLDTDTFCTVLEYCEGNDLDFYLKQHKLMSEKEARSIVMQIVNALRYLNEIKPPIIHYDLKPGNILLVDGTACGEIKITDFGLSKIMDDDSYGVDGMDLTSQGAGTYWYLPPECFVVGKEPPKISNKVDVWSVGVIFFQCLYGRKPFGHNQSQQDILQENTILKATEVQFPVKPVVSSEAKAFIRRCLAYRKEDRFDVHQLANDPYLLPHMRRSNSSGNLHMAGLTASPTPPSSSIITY
UniProt P12004: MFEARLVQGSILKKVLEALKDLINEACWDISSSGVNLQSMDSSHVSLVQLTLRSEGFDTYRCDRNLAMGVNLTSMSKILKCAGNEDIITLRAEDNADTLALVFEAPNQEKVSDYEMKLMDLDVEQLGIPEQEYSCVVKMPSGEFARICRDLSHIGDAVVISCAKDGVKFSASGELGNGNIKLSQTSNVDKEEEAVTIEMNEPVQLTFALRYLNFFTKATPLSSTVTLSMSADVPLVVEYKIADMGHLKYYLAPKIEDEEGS

Experiments:
SFB-TLK1 D607A (human) = SFB-TLK1 D607A (human) (UniProt Q9UKI8); experiment: pull-down; HEK293T transfected with SFB-tagged TLK1 or TLK2 constructs; streptavidin beads; PCNA detected by Western blot
[1] = target: SFB-TLK1 Y149A F150A D607A (human) (UniProt Q9UKI8); experiment: as above

- binding (SFB-TLK1 D607A (human)): binds
- binding [1]: no binding
Substance: PCNA (from UniProt P12004 1-261)
